In PubChem BioAssay AID2685 (National Center for Advancing Translational Sciences (NCATS), 2010):
Some of the results follow. The main result of the screen is listed elsewhere. These columns were measured beside it and carry no call. Most of these compounds were active or inconclusive in the main read-out, so they are no random draw. Potencies come from curve fits of mixed quality, noted in brackets.

Experiment: qHTS Assay for Lipid Storage Modulators in Drosophila S3 Cells;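 for cell number change: cells counted by Cell Tracker Red CMTPX staining in the red channel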
Details: BODIPY lipid droplet fluorescence, 18-24 h; for cell number change: measured here: cell count max response, cells fed with added oleic acid
Outline: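 Drosophila S3 cells got compounds at several concentrations plus oleic acid (400 uM solution). Laser-scanning cytometry with 488 nm excitation read lipid droplets at 500-530 nm and cells at 575-640 nm. Percent activity was relative to 20 uM Triacsin C.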

[1] = measured here: cell number channel AC50, cells fed with added oleic acid
[2] = measured here: lipid fluorescence (Fed channel) AC50, cells fed with added oleic acid

Compound	cell number change [%]	AC50 [1]	AC50 [2]
Cn1c(N)c(C(=O)COC(=O)C(Cc2ccccc2)NC(=O)c2ccccc2)c(=O)n(C)c1=O (configuration not stated)	-5.54		
O=C(CN1CCN(C2CCCCC2)CC1)c1ccc2cc[nH]c2c1	65.9	14.6 µM [rising, partial curve]	20.6 µM [rising, single point]
Cc1csc(NC(=O)c2cnc3ccccc3n2)n1			0.116 µM [falling, partial curve, poor fit]
Cn1c(=O)n(CCN2CCOCC2)c(=O)c2c1nc1n2CCN1c1ccc(Oc2ccccc2)cc1	-15.8	0.00517 µM [falling, full curve, poor fit]	0.00731 µM [falling, full curve, poor fit]
COc1ccc(C)cc1NC(=O)CN(c1ccc(C)cc1)S(C)(=O)=O	7.32		
Nc1nn2c(-c3ccccc3)cc(=O)[nH]c2c1N=Nc1ccc(O)cc1	-37.1	25.9 µM [falling, single point]	23.1 µM [falling, single point]
COc1cccc(-c2sc3ccc(OC)cc3c2C#CC2(O)CCCCC2)c1	-33.8	7.31 µM [falling, single point]	0.116 µM [falling, single point]
CN(CC(=O)Nc1cccc(F)c1)C(=O)c1cn(-c2ccccc2)nc1-c1ccc(Cl)cc1			25.9 µM [falling, partial curve]
CCOC(=O)c1cc(-c2ccccc2)sc1N	-37	23.1 µM [falling, single point]	18.4 µM [falling, single point]
O=[N+]([O-])c1cccc(CP(=O)(c2ccccc2)c2ccccc2)c1	3.76		32.6 µM [falling, single point]
COc1ccc(CCNC(=O)c2ccc(CS(=O)(=O)c3ccc(C)cc3)o2)cc1OC	-22.2		1.16 µM [rising, full curve]
O=C(O)c1ccc(CNS(=O)(=O)c2ccc(Oc3ccccc3Cl)cc2)cc1	-2.36		11.6 µM [rising, partial curve]
COc1cc(OC)cc(-c2cc3nc(C)c(CCC(=O)O)c(C)n3n2)c1	-14.8		32.6 µM [rising, single point]
CCn1cc(C(=O)OCC(=O)c2cc(C)n(-c3cccc(C(F)(F)F)c3)c2C)c(=O)c2ccc(C)nc21		1.16 µM [rising, full curve, poor fit]	
CCCOC(=S)N/C(=N\S(=O)(=O)c1ccccc1)c1ccccc1	-19.8	0.651 µM [falling, full curve, poor fit]	0.731 µM [falling, full curve]
Cc1cc(C)c(NS(=O)(=O)c2ccc(NC(=O)c3cccs3)cc2)c(C)c1	83.5	29.1 µM [rising, single point]	29.1 µM [rising, single point]
O=c1c2c(nc3n1CCCCC3)sc1c(O)cccc12	-9.71		29.1 µM [falling, partial curve, poor fit]
CCOC(=O)[C@H]1[C@H]2COc3ccc(Br)cc3[C@@H]2N2C(=O)CN(Cc3ccc(C)cc3)C(=O)[C@@]12C	11.7		0.411 µM [rising, full curve]
COc1cccc(N2CCN(S(=O)(=O)c3ccc(-c4cnc(C5CC5)o4)cc3)CC2)c1	-8.37		
COc1cccc(NC(=O)C2CCN(C(=O)[C@@H]3Cc4ccccc4CN3)CC2)c1	10.1		
COc1ccc(-c2cnc(SCC(=O)Nc3ccc4c(c3)OCO4)n2Cc2ccco2)cc1	-12		
Cc1csc(Sc2ccc(S(=O)(=O)N3CCCC3)cn2)n1			6.51 µM [rising, partial curve, poor fit]
CSCCC(NC(=O)c1ccccc1Br)C(=O)N1CCCC(C(F)(F)F)C1 (configuration not stated)	13.2		18.4 µM [rising, single point]
CCCCn1nc(C(=O)N(CCOC)c2c(N)n(CCCC)c(=O)[nH]c2=O)c2ccccc2c1=O	-20.8		4.11 µM [falling, full curve]
CCc1ccc(-n2c(C)nc3cc(C(=O)NCc4cccnc4)ccc32)cc1	21.7	1.64 µM [rising, partial curve, poor fit]	2.06 µM [rising, full curve]
CN(C)CCNC(=O)c1c(CSc2ccccc2)noc1C(=O)NCc1ccccc1	15.3		14.6 µM [rising, partial curve, poor fit]
Cn1c(COc2ccc(Cl)cc2)nnc1SCC(=O)NC1CCCC1			0.082 µM [falling, full curve, poor fit]
CCc1c(O)nc2sc3ccccc3n2c1=O	66.1	18.4 µM [rising, single point]	
CCn1ncc(CN2CCN(Cc3ccc(OC)c(C)c3C)C(CCO)C2)c1C (configuration not stated)	10.7		0.058 µM [rising, full curve, poor fit]
CC(=O)N1CCN(C(=O)c2cc3c(s2)CCC(C)C3)CC1 (configuration not stated)	33		

Fetched by structure from above, two records:
Compound	cell number change [%]	AC50 [1]	AC50 [2]
O=c1c2c(nc3n1CCCCC3)sc1c(O)cccc12	-9.71		29.1 µM [falling, partial curve, poor fit]
COc1cccc(NC(=O)C2CCN(C(=O)[C@@H]3Cc4ccccc4CN3)CC2)c1	10.1		
